These are yes or no findings as the source states them, for the method shown. Some entries that bind do so weakly or less than the wild type.

The target of experiment [1] is cynomolgus monkey CD38 extracellular domain (ECD), tagged (cynomolgus monkey). Kind of experiment: ELISA, hybridoma supernatant coated, biotinylated CD38 ED in solution.
For experiment [2], the target named is human CD38 extracellular domain (ECD), tagged (human). The experiment is described as above.

B1: R7H11 (rat hybridoma antibody) (antibody, V domains shown)
VH: QVQLKESGPGLLLSSETLSLTCTVSGFSLTSYEVSWVRQLPGRGLEWMGRVWIGGDTDYNSDLKSRLSISRDIAKSQVFLKMSNLKTEDTGTYYCARAYGFNYWSFDFWGPGTMVTVSS
VL: GQFTLTQPKSVSGSLRSTITIPCERSSGDIGDNYVTWYQQHLGRPPLNVIYADDQRPSEVSDRFSGSIDSSSNSASLTITNLQMDDEADYFCQSYDSNTDIIFGGGTKVTVL
With B1, the binding result in experiment [1] and in experiment [2] was “binds” each time.

B2: R10B10 (rat hybridoma antibody) (antibody, V domains shown)
VH: QVQLKESGPGLVQPSETLSLTCTVSGFSLTSYGVNWVRQPPGKGLEWMGRIWNDGSIDYNSALKSRLSISRDTSKGQVFLKMNSLQTEDTAIYFCARGPYNNYWYFDFWGPGTMVTVLS
VL: GQFTLTQPKSVSGSLRSTITIPCERSSGDIGDNYVSWYQQHLGRPPINVIYADDQRPSEVSDRFSGSIDSSSNSASLTITNLQMDDEADYFCQSYDSNIDIIFGGGTKLTVL
As for B2, the binding entry in experiment [1] and in experiment [2] was “binds” in each case.

Values taken from patent publication US20170233449A1.
